# Assay results taken from the supplement of paper PMC8728848.
# Some of the results follow.
# Tests used:
# Test in all cases: glycan array binding signal (z-score within array); higher = stronger binding
# Conditions in all cases: glycan notation: IUPAC condensed, linker removed
# [1] = target: Gal(b1-4)GalNAc(b1-3)[Fuc(a1-2)]Gal(b1-4)GlcNAc
# Procedure, shortened: (§1)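 Arrays were curated from the Consortium for Functional Glycomics database, 3228 in total, and kept only where the protein sequence was available. Binding is expressed as a within-array Z-score. This score was averaged across arrays of the same protein sequence at different concentrations or buffers and across linkers, and negative values can be read as non-binding.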
# Gal(b1-4)Glc = target: Gal(b1-4)Glc
# Procedure, shortened: as §1
# Gal(b1-4)Glc6S = target: Gal(b1-4)Glc6S
# Procedure, shortened: as §1
# Gal(b1-4)GlcNAc = target: Gal(b1-4)GlcNAc
# Procedure, shortened: as §1
# [2] = target: Gal(b1-4)GlcNAc(a1-6)Gal(b1-4)GlcNAc
# Procedure, shortened: as §1
# Gal(b1-4)GlcNAc(b1-2)Man = target: Gal(b1-4)GlcNAc(b1-2)Man
# Procedure, shortened: as §1
# [3] = target: Gal(b1-4)GlcNAc(b1-2)Man(a1-3)Man(b1-4)GlcNAc(b1-4)GlcNAc
# Procedure, shortened: as §1
# [4] = target: Gal(b1-4)GlcNAc(b1-2)Man(a1-3)[Gal(b1-4)GlcNAc(b1-2)Man(a1-6)]Man(b1-4)GlcNAc(b1-4)GlcNAc
# Procedure, shortened: as §1
# [5] = target: Gal(b1-4)GlcNAc(b1-2)Man(a1-3)[Gal(b1-4)GlcNAc(b1-2)Man(a1-6)]Man(b1-4)GlcNAc(b1-4)[Fuc(a1-6)]GlcNAc
# Procedure, shortened: as §1
# [6] = target: Gal(b1-4)GlcNAc(b1-2)Man(a1-3)[Gal(b1-4)GlcNAc(b1-2)Man(a1-6)][Gal(b1-4)GlcNAc(b1-4)]Man(b1-4)GlcNAc(b1-4)[Fuc(a1-6)]GlcNAc
# Procedure, shortened: as §1
# [7] = target: Gal(b1-4)GlcNAc(b1-2)Man(a1-3)[Gal(b1-4)GlcNAc(b1-2)Man(a1-6)][GlcNAc(b1-4)]Man(b1-4)GlcNAc(b1-4)[Fuc(a1-6)]GlcNAc
# Procedure, shortened: as §1
# [8] = target: Gal(b1-4)GlcNAc(b1-2)Man(a1-3)[GlcNAc(b1-2)Man(a1-6)]Man(b1-4)GlcNAc(b1-4)GlcNAc
# Procedure, shortened: as §1
# [9] = target: Gal(b1-4)GlcNAc(b1-2)Man(a1-3)[GlcNAc(b1-4)][Gal(b1-4)GlcNAc(b1-2)Man(a1-6)]Man(b1-4)GlcNAc(b1-4)GlcNAc
# Procedure, shortened: as §1
# [10] = target: Gal(b1-4)GlcNAc(b1-2)Man(a1-3)[Man(a1-6)]Man(b1-4)GlcNAc(b1-4)GlcNAc
# Procedure, shortened: as §1
# [11] = target: Gal(b1-4)GlcNAc(b1-2)Man(a1-6)Man(b1-4)GlcNAc(b1-4)GlcNAc
# Procedure, shortened: as §1
# [12] = target: Gal(b1-4)GlcNAc(b1-2)Man(a1-6)[GlcNAc(b1-2)Man(a1-3)]Man(b1-4)GlcNAc(b1-4)GlcNAc
# Procedure, shortened: as §1
# [13] = target: Gal(b1-4)GlcNAc(b1-2)Man(a1-6)[Man(a1-3)]Man(b1-4)GlcNAc(b1-4)GlcNAc
# Procedure, shortened: as §1
# [14] = target: Gal(b1-4)GlcNAc(b1-2)[Gal(b1-4)GlcNAc(b1-4)]Man(a1-3)[Gal(b1-4)GlcNAc(b1-2)Man(a1-6)]Man(b1-4)GlcNAc(b1-4)GlcNAc
# Procedure, shortened: as §1
# [15] = target: Gal(b1-4)GlcNAc(b1-2)[Gal(b1-4)GlcNAc(b1-4)]Man(a1-3)[Gal(b1-4)GlcNAc(b1-2)[Gal(b1-4)GlcNAc(b1-6)]Man(a1-6)]Man(b1-4)GlcNAc(b1-4)GlcNAc
# Procedure, shortened: as §1
# [16] = target: Gal(b1-4)GlcNAc(b1-2)[Gal(b1-4)GlcNAc(b1-4)]Man(a1-3)[GlcNAc(b1-4)][Gal(b1-4)GlcNAc(b1-2)Man(a1-6)]Man(b1-4)GlcNAc(b1-4)GlcNAc
# Procedure, shortened: as §1
# [17] = target: Gal(b1-4)GlcNAc(b1-2)[Gal(b1-4)GlcNAc(b1-4)]Man(a1-3)[GlcNAc(b1-4)][Gal(b1-4)GlcNAc(b1-2)[Gal(b1-4)GlcNAc(b1-6)]Man(a1-6)]Man(b1-4)GlcNAc(b1-4)GlcNAc
# Procedure, shortened: as §1
# [18] = target: Gal(b1-4)GlcNAc(b1-2)[Gal(b1-4)GlcNAc(b1-6)]Man(a1-6)[Gal(b1-4)GlcNAc(b1-2)Man(a1-3)]Man(b1-4)GlcNAc(b1-4)GlcNAc
# Procedure, shortened: as §1
# [19] = target: Gal(b1-4)GlcNAc(b1-2)[Gal(b1-4)GlcNAc(b1-6)]Man(a1-6)[Gal(b1-4)GlcNAc(b1-2)Man(a1-3)]Man(b1-4)GlcNAc(b1-4)[Fuc(a1-6)]GlcNAc
# Procedure, shortened: as §1
# [20] = target: Gal(b1-4)GlcNAc(b1-2)[Gal(b1-4)GlcNAc(b1-6)]Man(a1-6)[GlcNAc(b1-4)][Gal(b1-4)GlcNAc(b1-2)Man(a1-3)]Man(b1-4)GlcNAc(b1-4)GlcNAc
# Procedure, shortened: as §1
# [21] = target: Gal(b1-4)GlcNAc(b1-2)[Gal(b1-4)GlcNAc(b1-6)]Man(a1-6)[GlcNAc(b1-4)][Gal(b1-4)GlcNAc(b1-2)[Gal(b1-4)GlcNAc(b1-4)]Man(a1-3)]Man(b1-4)GlcNAc(b1-4)[Fuc(a1-6)]GlcNAc
# Procedure, shortened: as §1
# [22] = target: Gal(b1-4)GlcNAc(b1-3)Gal(b1-3)GalNAc
# Procedure, shortened: as §1
# [23] = target: Gal(b1-4)GlcNAc(b1-3)Gal(b1-3)GlcNAc
# Procedure, shortened: as §1
# [24] = target: Gal(b1-4)GlcNAc(b1-3)Gal(b1-4)Glc
# Procedure, shortened: as §1
# [25] = target: Gal(b1-4)GlcNAc(b1-3)Gal(b1-4)GlcNAc
# Procedure, shortened: as §1
# [26] = target: Gal(b1-4)GlcNAc(b1-3)Gal(b1-4)GlcNAc(b1-2)Man(a1-3)[Gal(b1-4)GlcNAc(b1-3)Gal(b1-4)GlcNAc(b1-2)Man(a1-6)]Man(b1-4)GlcNAc(b1-4)GlcNAc
# Procedure, shortened: as §1
# [27] = target: Gal(b1-4)GlcNAc(b1-3)Gal(b1-4)GlcNAc(b1-2)Man(a1-3)[Gal(b1-4)GlcNAc(b1-3)Gal(b1-4)GlcNAc(b1-2)Man(a1-6)]Man(b1-4)GlcNAc(b1-4)[Fuc(a1-6)]GlcNAc
# Procedure, shortened: as §1
# [28] = target: Gal(b1-4)GlcNAc(b1-3)Gal(b1-4)GlcNAc(b1-2)[Gal(b1-4)GlcNAc(b1-3)Gal(b1-4)GlcNAc(b1-6)]Man(a1-6)[Gal(b1-4)GlcNAc(b1-3)Gal(b1-4)GlcNAc(b1-2)Man(a1-3)]Man(b1-4)GlcNAc(b1-4)GlcNAc
# Procedure, shortened: as §1
# [29] = target: Gal(b1-4)GlcNAc(b1-3)Gal(b1-4)GlcNAc(b1-2)[Gal(b1-4)GlcNAc(b1-3)Gal(b1-4)GlcNAc(b1-6)]Man(a1-6)[Gal(b1-4)GlcNAc(b1-3)Gal(b1-4)GlcNAc(b1-2)Man(a1-3)]Man(b1-4)GlcNAc(b1-4)[Fuc(a1-6)]GlcNAc
# Procedure, shortened: as §1
# [30] = target: Gal(b1-4)GlcNAc(b1-3)Gal(b1-4)GlcNAc(b1-3)Gal(b1-4)GlcNAc
# Procedure, shortened: as §1
# [31] = target: Gal(b1-4)GlcNAc(b1-3)Gal(b1-4)GlcNAc(b1-3)Gal(b1-4)GlcNAc(b1-2)Man(a1-3)[Gal(b1-4)GlcNAc(b1-3)Gal(b1-4)GlcNAc(b1-3)Gal(b1-4)GlcNAc(b1-2)Man(a1-6)]Man(b1-4)GlcNAc(b1-4)GlcNAc
# Procedure, shortened: as §1
# [32] = target: Gal(b1-4)GlcNAc(b1-3)Gal(b1-4)GlcNAc(b1-3)Gal(b1-4)GlcNAc(b1-2)Man(a1-3)[Gal(b1-4)GlcNAc(b1-3)Gal(b1-4)GlcNAc(b1-3)Gal(b1-4)GlcNAc(b1-2)Man(a1-6)]Man(b1-4)GlcNAc(b1-4)[Fuc(a1-6)]GlcNAc
# Procedure, shortened: as §1
# [33] = target: Gal(b1-4)GlcNAc(b1-3)Gal(b1-4)GlcNAc(b1-3)Gal(b1-4)GlcNAc(b1-2)[Gal(b1-4)GlcNAc(b1-3)Gal(b1-4)GlcNAc(b1-3)Gal(b1-4)GlcNAc(b1-6)]Man(a1-6)[Gal(b1-4)GlcNAc(b1-3)Gal(b1-4)GlcNAc(b1-3)Gal(b1-4)GlcNAc(b1-2)Man(a1-3)]Man(b1-4)GlcNAc(b1-4)[Fuc(a1-6)]GlcNAc
# Procedure, shortened: as §1
binder,measurement,setting,value
Epa19 (Candida glabrata) (protein) MGSSHHHHHHSSGLVPRGSHMASSKDPTRFPIGCSPQVLKTQPGLAVKLYSYGHPVPGCSYITYQYPDFPRSGYKKERKLADITGVNGKIDIDLKPNDPCRVLTGHLPSNYNYPDTLTYTNFTMILYGYFQPKVTGYHTFNLEADDLLFMNLGAGNAFDCCKAESTLDNFGNYQSYSLWGSDYAKANITVFLVSGVYYPIRLFYVNRDNNAVIDFSFTTEFDKEKVHDFTSYFFSASDGEQCPGSV,glycan array binding signal (z-score),[1],-0.369
same,glycan array binding signal (z-score),Gal(b1-4)Glc,-0.382
same,glycan array binding signal (z-score),Gal(b1-4)Glc6S,2.4
same,glycan array binding signal (z-score),Gal(b1-4)GlcNAc,-0.455
same,glycan array binding signal (z-score),[2],-0.393
same,glycan array binding signal (z-score),Gal(b1-4)GlcNAc(b1-2)Man,0.972
same,glycan array binding signal (z-score),[3],-0.144
same,glycan array binding signal (z-score),[4],-0.163
same,glycan array binding signal (z-score),[5],-0.163
same,glycan array binding signal (z-score),[6],-1.35
same,glycan array binding signal (z-score),[7],-0.603
same,glycan array binding signal (z-score),[8],-0.505
same,glycan array binding signal (z-score),[9],-0.894
same,glycan array binding signal (z-score),[10],-0.49
same,glycan array binding signal (z-score),[11],-0.44
same,glycan array binding signal (z-score),[12],0.102
same,glycan array binding signal (z-score),[13],0.854
same,glycan array binding signal (z-score),[14],-0.535
same,glycan array binding signal (z-score),[15],-0.724
same,glycan array binding signal (z-score),[16],-0.328
same,glycan array binding signal (z-score),[17],-1.07
same,glycan array binding signal (z-score),[18],-1.26
same,glycan array binding signal (z-score),[19],-0.425
same,glycan array binding signal (z-score),[20],-0.388
same,glycan array binding signal (z-score),[21],0.533
same,glycan array binding signal (z-score),[22],-0.47
same,glycan array binding signal (z-score),[23],0.038
same,glycan array binding signal (z-score),[24],0.059
same,glycan array binding signal (z-score),[25],-0.486
same,glycan array binding signal (z-score),[26],2.29
same,glycan array binding signal (z-score),[27],0.186
same,glycan array binding signal (z-score),[28],0.736
same,glycan array binding signal (z-score),[29],0.241
same,glycan array binding signal (z-score),[30],-0.32
same,glycan array binding signal (z-score),[31],0.479
same,glycan array binding signal (z-score),[32],0.256
same,glycan array binding signal (z-score),[33],0.72

# Part of the list above, set out differently:
binder | measurement | setting | value
Epa19 (Candida glabrata) (protein) MGSSHHHHHHSSGLVPRGSHMASSKDPTRFPIGCSPQVLKTQPGLAVKLYSYGHPVPGCSYITYQYPDFPRSGYKKERKLADITGVNGKIDIDLKPNDPCRVLTGHLPSNYNYPDTLTYTNFTMILYGYFQPKVTGYHTFNLEADDLLFMNLGAGNAFDCCKAESTLDNFGNYQSYSLWGSDYAKANITVFLVSGVYYPIRLFYVNRDNNAVIDFSFTTEFDKEKVHDFTSYFFSASDGEQCPGSV | glycan array binding signal (z-score) | [2] | -0.393
same | glycan array binding signal (z-score) | [26] | 2.29
